PubChem BioAssay AID1259308 | NCATS | 2017
This is one part, drawn at random, of about 59,000 deposited reagents. About 1,510 of them (2.6%) were called active. 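Calls use total luciferase alone and ignore viability, so some active siRNAs may act by altering cell number.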 Unmarked entries are inactive. The numbers tell different reagents against one gene apart. Not all columns of the deposit are shown.

Screen: 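Candidate targets for better recombinant protein yield in mammalian cells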 (primary screen)
Cells: human HEK293 embryonic kidney cells stably expressing firefly luciferase (HEK-CMV-Luc2-Hygro)
Reagents: single siRNA against human genes, 0.8 pmol siRNA per well
Timing: 72 h
Read-out: 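Luciferase light (ONE-Glo) measured on one replicate plate set and viability (CellTiter-Glo) on the other, scaled to a negative control siRNA, with robust z-scores and luciferase per cell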
Reading the numbers: total luciferase, z-score and total luciferase, % of control: higher = more reporter protein produced
Rule for the call: 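An siRNA counts as active if its total luciferase robust z-score exceeds 3; genes with two or more such siRNAs out of three were retested with fresh siRNAs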
Meaning of the calls: active = raised luciferase; inactive = no rise

For ASAH2 (GeneID 56624) #1, what does the deposit list?
total luciferase, z-score: -2.01; total luciferase, % of control: 41.9

With ASAH2 (GeneID 56624) #2, how do the results read?
total luciferase, z-score: 0.194; total luciferase, % of control: 85.7

With ASAH2 (GeneID 56624) #3, how do the results read?
total luciferase, z-score: -0.00833; total luciferase, % of control: 81.7

What did the screen give for PYGL (GeneID 5836) #1?
total luciferase, z-score: 0.0369; total luciferase, % of control: 82.6

Which result is listed for PYGL (GeneID 5836) #2?
total luciferase, z-score: 2.45; total luciferase, % of control: 131

What did the screen give for PYGL (GeneID 5836) #3?
total luciferase, z-score: 0.509; total luciferase, % of control: 92

Which result is listed for PAQR3 (GeneID 152559) #1?
total luciferase, z-score: -0.627; total luciferase, % of control: 69.4

For PAQR3 (GeneID 152559) #2, how do the results read?
total luciferase, z-score: -0.645; total luciferase, % of control: 69.1

What is on record for PAQR3 (GeneID 152559) #3?
total luciferase, z-score: -0.301; total luciferase, % of control: 75.9

Which result is listed for RACK1 (GeneID 10399) #1?
total luciferase, z-score: -0.105; total luciferase, % of control: 79.8

With RACK1 (GeneID 10399) #2, how do the results read?
total luciferase, z-score: 0.499; total luciferase, % of control: 91.8

For RACK1 (GeneID 10399) #3, what does the deposit list?
total luciferase, z-score: -0.343; total luciferase, % of control: 75.1

With GLP1R (GeneID 2740) #1, what was measured?
total luciferase, z-score: -0.0707; total luciferase, % of control: 80.5

Which result is listed for GLP1R (GeneID 2740) #2?
total luciferase, z-score: -0.422; total luciferase, % of control: 73.5

For GLP1R (GeneID 2740) #3, what does the deposit list?
total luciferase, z-score: -0.806; total luciferase, % of control: 65.9

With PAX6 (GeneID 5080) #1, how do the results read?
total luciferase, z-score: 0.243; total luciferase, % of control: 86.7

What did the screen give for PAX6 (GeneID 5080) #2?
total luciferase, z-score: 0.29; total luciferase, % of control: 87.6

With PAX6 (GeneID 5080) #3, what does the deposit list?
total luciferase, z-score: -1.49; total luciferase, % of control: 52.3

Which result is listed for RPS6KA2 (GeneID 6196) #1?
total luciferase, z-score: 2.59; total luciferase, % of control: 133

How did the screen score RPS6KA2 (GeneID 6196) #2?
total luciferase, z-score: -0.0875; total luciferase, % of control: 80.1

For RPS6KA2 (GeneID 6196) #3, what was measured?
total luciferase, z-score: -2.09; total luciferase, % of control: 40.3

What did the screen give for ARHGEF10L (GeneID 55160) #1?
total luciferase, z-score: 0.0783; total luciferase, % of control: 83.4

Which result is listed for ARHGEF10L (GeneID 55160) #2?
total luciferase, z-score: 0.744; total luciferase, % of control: 96.7

With ARHGEF10L (GeneID 55160) #3, what does the deposit list?
total luciferase, z-score: -1.29; total luciferase, % of control: 56.3

With TJP3 (GeneID 27134) #1, how do the results read?
total luciferase, z-score: -1.96; total luciferase, % of control: 43

With TJP3 (GeneID 27134) #2, what does the deposit list?
total luciferase, z-score: -0.709; total luciferase, % of control: 67.8

With TJP3 (GeneID 27134) #3, what was measured?
total luciferase, z-score: -1.89; total luciferase, % of control: 44.4

What is on record for SLC2A12 (GeneID 154091) #1?
total luciferase, z-score: 1.05; total luciferase, % of control: 103

How did the screen score SLC2A12 (GeneID 154091) #2?
total luciferase, z-score: -0.353; total luciferase, % of control: 74.9

With SLC2A12 (GeneID 154091) #3, how do the results read?
total luciferase, z-score: 0.368; total luciferase, % of control: 89.2

How did the screen score RELB (GeneID 5971) #1?
total luciferase, z-score: 1.64; total luciferase, % of control: 115

Which result is listed for RELB (GeneID 5971) #2?
total luciferase, z-score: -0.298; total luciferase, % of control: 76

For RELB (GeneID 5971) #3, what does the deposit list?
total luciferase, z-score: -0.361; total luciferase, % of control: 74.7

For COL6A2 (GeneID 1292) #1, what does the deposit list?
total luciferase, z-score: -0.0862; total luciferase, % of control: 80.2

Which result is listed for COL6A2 (GeneID 1292) #2?
total luciferase, z-score: -0.577; total luciferase, % of control: 70.4

For COL6A2 (GeneID 1292) #3, what was measured?
total luciferase, z-score: -1.39; total luciferase, % of control: 54.2

Which result is listed for DYNLT2 (GeneID 6991) #1?
total luciferase, z-score: -0.0108; total luciferase, % of control: 81.7

With DYNLT2 (GeneID 6991) #2, what was measured?
total luciferase, z-score: 0.777; total luciferase, % of control: 97.3

With DYNLT2 (GeneID 6991) #3, what does the deposit list?
total luciferase, z-score: -0.201; total luciferase, % of control: 77.9

What did the screen give for TSEN2 (GeneID 80746) #1?
total luciferase, z-score: -0.256; total luciferase, % of control: 76.8

Which result is listed for TSEN2 (GeneID 80746) #2?
total luciferase, z-score: 0.934; total luciferase, % of control: 100

What is on record for TSEN2 (GeneID 80746) #3?
total luciferase, z-score: 5.03 (active); total luciferase, % of control: 182

Reprinted from above (2 entries):
RPS6KA2 (GeneID 6196) #2 — total luciferase, z-score: -0.0875; total luciferase, % of control: 80.1
RPS6KA2 (GeneID 6196) #3 — total luciferase, z-score: -2.09; total luciferase, % of control: 40.3
